Assay results published in publication PMC11374535.
Results are given in words; binding and its absence hold for the method and conditions named. Binding can be weak; no strength is given. For some assays here: Binding seen in cells or lysates may run through a third protein. For some assays here: Sequences can lack the tags named with a protein.

B1: cLUC-SlTrxh (protein, UniProt Q9LKW0 65-175)
chain: EDYLVKKLSAKEIQELIKGERNVPLIIDFYATWCGPCILMAQELEMLAVEYENNALIVKVDTDDEYEFARDMQVRGLPTLYFISPDSSKDAIRTEGLIPIQMMRDIIDNDL
B2: pGADT7-SlTrxh (protein, UniProt Q9LKW0 1-175)
chain: MQAASLAFHPPALRTSPSYLSSKLPHHLNYSLFKHAPSTSTLSLTQVLSRNTICKPPAVGKYVREDYLVKKLSAKEIQELIKGERNVPLIIDFYATWCGPCILMAQELEMLAVEYENNALIVKVDTDDEYEFARDMQVRGLPTLYFISPDSSKDAIRTEGLIPIQMMRDIIDNDL

Experiments:
[1] = target: SlGrx9-nLUC (tomato (Solanum lycopersicum)); assay: split reporter; luciferase complementation assay (LCA) in N. benthamiana leaves, 48-72 h after infiltration; 1 mM D-luciferin; also with nitrate, GSNO (NO donor) or cPTIO (NO scavenger) added
[2] = target: pGBKT7-SlGrx9 (tomato (Solanum lycopersicum)); assay: two-hybrid; pairwise; pGADT7-SlTrxh as prey, pGBKT7-SlGrx9 as bait; yeast Y2H Gold; growth on SD/-Leu/-Trp/-His/-Ade

Binder | binding [1] | binding [2]
B1 | binds | –
B2 | – | binds
